From the supplement of paper PMC10849652
The other results are listed elsewhere or left out.

Sequences of proteins named here, by UniProt entry; tags and fusion partners are left off. A change or cut given only in a name is not applied to a line headed by its entry.
UniProt Q14554: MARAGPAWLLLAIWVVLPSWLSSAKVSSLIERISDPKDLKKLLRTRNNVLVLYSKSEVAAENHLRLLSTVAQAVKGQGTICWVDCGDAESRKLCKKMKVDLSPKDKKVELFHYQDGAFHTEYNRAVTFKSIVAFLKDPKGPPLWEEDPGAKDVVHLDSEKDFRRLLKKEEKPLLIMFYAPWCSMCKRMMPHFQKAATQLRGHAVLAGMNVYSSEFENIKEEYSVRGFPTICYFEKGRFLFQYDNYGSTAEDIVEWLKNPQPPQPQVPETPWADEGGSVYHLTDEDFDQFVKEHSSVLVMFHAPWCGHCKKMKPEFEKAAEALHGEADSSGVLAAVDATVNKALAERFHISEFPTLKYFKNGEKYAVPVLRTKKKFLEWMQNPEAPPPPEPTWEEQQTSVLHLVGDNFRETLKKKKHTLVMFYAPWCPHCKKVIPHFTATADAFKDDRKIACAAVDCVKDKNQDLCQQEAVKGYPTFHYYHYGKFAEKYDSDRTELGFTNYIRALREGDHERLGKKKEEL
UniProt O75340: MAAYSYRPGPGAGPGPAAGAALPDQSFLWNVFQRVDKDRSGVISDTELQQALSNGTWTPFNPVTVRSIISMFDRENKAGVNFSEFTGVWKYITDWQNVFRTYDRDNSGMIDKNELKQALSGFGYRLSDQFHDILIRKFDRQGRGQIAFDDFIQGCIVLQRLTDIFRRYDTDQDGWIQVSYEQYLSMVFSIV
UniProt O00408, whole entry, looked up: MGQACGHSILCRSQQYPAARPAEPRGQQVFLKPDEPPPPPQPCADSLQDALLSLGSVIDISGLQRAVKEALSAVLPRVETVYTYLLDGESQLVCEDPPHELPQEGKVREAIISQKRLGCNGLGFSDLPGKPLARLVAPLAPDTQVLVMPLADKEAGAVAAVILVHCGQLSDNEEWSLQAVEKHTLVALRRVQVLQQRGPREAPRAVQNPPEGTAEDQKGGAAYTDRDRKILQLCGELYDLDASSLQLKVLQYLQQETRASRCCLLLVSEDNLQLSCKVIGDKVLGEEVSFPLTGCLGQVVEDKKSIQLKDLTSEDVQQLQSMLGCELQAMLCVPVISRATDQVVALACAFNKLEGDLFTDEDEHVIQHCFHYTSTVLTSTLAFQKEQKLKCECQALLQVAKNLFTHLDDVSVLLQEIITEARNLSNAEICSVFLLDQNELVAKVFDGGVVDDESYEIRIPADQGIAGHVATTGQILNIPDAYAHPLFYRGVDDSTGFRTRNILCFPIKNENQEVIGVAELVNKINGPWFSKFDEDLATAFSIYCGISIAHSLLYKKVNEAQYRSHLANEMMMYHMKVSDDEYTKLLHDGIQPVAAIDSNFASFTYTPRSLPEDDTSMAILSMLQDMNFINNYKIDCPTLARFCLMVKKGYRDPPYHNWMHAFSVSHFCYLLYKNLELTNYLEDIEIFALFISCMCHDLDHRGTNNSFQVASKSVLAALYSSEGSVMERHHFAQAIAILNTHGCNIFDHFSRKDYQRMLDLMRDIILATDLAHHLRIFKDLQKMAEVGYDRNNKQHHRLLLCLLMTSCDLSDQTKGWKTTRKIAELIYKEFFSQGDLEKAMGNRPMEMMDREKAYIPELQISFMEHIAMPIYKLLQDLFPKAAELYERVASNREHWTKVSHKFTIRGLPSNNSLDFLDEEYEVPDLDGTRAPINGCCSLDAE
UniProt Q9BUH6, whole entry, looked up: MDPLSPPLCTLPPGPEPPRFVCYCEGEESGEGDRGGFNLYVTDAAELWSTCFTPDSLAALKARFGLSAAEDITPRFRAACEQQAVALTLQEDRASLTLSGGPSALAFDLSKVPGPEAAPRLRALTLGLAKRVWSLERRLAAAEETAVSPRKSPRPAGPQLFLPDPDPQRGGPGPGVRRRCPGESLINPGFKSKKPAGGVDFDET
UniProt Q9H2J4: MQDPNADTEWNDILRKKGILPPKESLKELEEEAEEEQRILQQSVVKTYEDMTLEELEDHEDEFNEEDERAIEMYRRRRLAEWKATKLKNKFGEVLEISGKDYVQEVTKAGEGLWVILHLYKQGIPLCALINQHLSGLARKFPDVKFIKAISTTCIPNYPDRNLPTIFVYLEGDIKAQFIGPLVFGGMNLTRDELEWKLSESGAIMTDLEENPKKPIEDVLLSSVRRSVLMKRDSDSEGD
UniProt Q8NBP7, whole entry, looked up: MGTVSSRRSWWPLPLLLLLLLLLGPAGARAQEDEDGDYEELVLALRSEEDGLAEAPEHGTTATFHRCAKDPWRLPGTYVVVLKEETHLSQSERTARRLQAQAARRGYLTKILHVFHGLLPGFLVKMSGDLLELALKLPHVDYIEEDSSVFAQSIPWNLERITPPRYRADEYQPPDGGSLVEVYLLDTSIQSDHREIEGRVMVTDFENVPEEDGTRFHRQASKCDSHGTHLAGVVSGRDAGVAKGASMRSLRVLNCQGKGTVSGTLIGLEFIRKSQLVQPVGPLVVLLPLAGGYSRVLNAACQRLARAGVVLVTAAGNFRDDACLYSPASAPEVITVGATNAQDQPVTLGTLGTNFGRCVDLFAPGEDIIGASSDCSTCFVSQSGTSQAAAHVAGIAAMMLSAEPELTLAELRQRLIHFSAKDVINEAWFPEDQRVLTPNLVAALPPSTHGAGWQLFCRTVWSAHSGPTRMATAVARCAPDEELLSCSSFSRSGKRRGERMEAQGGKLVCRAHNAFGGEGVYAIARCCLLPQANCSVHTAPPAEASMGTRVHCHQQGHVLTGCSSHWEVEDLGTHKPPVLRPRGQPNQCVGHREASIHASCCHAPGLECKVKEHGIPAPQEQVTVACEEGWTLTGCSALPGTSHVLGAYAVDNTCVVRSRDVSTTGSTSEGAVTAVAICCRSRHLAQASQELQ
UniProt Q460N5, whole entry, looked up: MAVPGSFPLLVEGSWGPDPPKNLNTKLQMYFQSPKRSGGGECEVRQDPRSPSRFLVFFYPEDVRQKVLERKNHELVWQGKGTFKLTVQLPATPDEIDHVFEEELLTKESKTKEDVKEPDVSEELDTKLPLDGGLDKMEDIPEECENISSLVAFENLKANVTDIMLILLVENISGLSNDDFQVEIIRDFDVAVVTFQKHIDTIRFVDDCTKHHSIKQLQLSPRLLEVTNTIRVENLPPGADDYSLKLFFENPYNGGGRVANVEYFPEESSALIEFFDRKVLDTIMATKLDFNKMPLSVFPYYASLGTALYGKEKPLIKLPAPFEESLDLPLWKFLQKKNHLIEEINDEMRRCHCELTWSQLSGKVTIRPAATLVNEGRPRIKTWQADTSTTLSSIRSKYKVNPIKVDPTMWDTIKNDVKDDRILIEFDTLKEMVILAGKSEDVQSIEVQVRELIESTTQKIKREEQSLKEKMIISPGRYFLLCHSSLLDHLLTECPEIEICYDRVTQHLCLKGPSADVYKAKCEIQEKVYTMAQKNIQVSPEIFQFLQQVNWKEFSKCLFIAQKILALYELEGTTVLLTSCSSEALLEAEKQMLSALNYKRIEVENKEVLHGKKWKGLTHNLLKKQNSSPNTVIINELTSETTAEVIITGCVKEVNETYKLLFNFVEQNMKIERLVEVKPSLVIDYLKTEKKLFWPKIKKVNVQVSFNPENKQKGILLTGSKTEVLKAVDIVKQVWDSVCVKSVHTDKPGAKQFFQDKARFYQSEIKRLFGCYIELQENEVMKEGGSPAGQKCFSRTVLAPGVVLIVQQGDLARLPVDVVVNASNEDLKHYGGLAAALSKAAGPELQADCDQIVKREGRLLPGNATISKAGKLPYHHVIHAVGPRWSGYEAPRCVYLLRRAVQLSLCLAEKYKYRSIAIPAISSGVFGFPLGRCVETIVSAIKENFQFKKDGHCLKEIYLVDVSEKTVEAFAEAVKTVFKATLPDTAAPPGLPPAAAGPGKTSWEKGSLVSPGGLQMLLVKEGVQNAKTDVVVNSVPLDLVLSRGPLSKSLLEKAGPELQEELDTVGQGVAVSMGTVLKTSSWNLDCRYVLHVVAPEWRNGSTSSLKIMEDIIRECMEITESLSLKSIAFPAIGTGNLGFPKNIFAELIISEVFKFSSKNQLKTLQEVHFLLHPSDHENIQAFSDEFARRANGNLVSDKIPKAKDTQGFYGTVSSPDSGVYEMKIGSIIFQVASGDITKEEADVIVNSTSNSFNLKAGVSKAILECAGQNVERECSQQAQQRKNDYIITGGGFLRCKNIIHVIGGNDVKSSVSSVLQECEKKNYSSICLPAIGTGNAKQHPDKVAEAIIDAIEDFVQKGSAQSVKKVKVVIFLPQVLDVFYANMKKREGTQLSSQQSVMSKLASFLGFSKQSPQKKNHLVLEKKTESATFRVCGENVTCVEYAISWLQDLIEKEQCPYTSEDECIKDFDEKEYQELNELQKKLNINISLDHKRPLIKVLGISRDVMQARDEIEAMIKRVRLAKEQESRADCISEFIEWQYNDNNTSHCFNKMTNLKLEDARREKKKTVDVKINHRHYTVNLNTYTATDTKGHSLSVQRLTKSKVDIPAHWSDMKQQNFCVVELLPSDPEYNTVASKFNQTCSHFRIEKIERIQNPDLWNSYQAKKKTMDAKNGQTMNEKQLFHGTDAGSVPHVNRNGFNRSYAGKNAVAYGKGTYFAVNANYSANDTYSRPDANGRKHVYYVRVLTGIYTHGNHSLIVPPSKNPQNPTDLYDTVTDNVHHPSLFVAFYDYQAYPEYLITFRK
UniProt P50479: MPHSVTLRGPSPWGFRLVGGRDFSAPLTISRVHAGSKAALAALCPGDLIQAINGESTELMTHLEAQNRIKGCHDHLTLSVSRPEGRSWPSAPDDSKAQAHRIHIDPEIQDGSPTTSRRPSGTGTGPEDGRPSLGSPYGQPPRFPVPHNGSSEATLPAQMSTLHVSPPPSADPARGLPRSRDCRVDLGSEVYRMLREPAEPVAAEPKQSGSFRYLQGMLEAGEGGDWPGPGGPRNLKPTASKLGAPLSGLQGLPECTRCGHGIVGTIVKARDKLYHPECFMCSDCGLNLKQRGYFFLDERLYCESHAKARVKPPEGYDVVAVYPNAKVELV
UniProt Q9Y5B6: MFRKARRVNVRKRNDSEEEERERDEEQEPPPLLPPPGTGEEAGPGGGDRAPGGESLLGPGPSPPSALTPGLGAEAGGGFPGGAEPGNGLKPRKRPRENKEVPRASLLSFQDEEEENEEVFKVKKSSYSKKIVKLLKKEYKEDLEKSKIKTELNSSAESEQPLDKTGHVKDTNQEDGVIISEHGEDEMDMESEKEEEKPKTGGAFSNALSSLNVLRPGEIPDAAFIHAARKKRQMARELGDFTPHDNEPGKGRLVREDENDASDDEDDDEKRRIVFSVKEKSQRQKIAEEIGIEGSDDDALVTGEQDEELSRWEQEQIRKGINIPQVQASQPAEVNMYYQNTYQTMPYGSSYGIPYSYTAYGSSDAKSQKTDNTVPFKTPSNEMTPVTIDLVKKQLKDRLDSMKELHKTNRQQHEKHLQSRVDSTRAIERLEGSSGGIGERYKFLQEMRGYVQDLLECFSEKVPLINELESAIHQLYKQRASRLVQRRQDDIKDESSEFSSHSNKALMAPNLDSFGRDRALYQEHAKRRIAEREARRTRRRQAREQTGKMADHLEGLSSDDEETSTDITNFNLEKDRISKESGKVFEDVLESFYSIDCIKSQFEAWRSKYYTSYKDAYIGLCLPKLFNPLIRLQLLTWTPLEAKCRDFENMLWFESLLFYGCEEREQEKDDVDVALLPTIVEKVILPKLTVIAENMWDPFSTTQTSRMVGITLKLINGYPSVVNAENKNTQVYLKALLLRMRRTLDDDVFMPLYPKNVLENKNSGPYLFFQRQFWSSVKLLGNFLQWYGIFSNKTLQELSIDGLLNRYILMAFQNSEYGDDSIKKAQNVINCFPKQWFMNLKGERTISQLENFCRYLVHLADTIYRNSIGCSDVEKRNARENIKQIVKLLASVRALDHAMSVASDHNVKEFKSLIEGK
UniProt Q9Y5K3: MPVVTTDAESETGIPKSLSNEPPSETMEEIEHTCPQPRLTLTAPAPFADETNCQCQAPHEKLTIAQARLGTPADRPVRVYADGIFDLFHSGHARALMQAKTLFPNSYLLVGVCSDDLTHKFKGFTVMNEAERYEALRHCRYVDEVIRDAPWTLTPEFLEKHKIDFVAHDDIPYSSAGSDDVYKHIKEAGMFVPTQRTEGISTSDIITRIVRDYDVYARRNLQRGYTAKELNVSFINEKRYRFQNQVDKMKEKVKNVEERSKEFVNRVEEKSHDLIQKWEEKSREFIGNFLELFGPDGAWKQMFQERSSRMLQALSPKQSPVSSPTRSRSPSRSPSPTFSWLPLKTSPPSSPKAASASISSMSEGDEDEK
UniProt P18669: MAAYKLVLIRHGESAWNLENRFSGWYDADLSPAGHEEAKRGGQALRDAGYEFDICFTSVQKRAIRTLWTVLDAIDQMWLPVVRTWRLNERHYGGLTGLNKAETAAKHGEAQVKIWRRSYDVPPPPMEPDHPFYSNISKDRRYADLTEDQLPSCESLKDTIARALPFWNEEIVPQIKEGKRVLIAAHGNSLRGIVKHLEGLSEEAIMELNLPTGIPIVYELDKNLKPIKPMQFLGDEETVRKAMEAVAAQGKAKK

How the values were obtained:
Assay in all cases: log2 fold change, soluble protein after heating vs DMSO (PISA); higher = thermal stabilisation; K562 lysate, 10 uM; active = over 0.2 and 3.5 SD of the protein, either way, in both replicates (recomputed)
erlotinib = compound: C#Cc1cccc(Nc2ncnc3cc(OCCOC)c(OCCOC)cc23)c1 [erlotinib]
In short: (§1)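 The values are log-two fold changes in thermal stability compared with solvent controls and come from duplicates. They were obtained by TMTpro 16plex LC-MS/MS, with channel sums equalised, on the supernatant after 21,000xg for 90 min. That supernatant came from crude K562 extract at 1 mg/mL protein treated with 10 μM compound for 30 min, heated for 3 min across 48°C-58°C, pooled and brought to 0.5% NP-40 at 4°C.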

[1] = compound: C/C(=N\NC(=O)C1=CC(=CC=C1)S(=O)(=O)N2CCOCC2)/C3=C(C=CC(=C3)Cl)O
In short: as §1

[2] = compound: C1=CC(=CC=C1C2=NC3=C(N2)C=C(C=C3)C(=O)N)OC4=CC=C(C=C4)Cl
In short: as §1

[3] = compound: C1=CC2=C(C=CC(=C2)/C=C\3/C(=O)NC(=NCC4=CC=CS4)S3)N=C1
In short: as §1

[4] = compound: C1=CC2=NC=CN=C2C=C1/C=C/3\C(=O)NC(=O)S3
In short: as §1

[5] = compound: C1=CC=C(C=C1)C2=NC(=C(N2)C3=CC=NC=C3)C4=CC(=C(C=C4)Cl)O
In short: as §1

[6] = compound: C1=CC=C2C(=C1)C3=NNC4=CC=CC(=C43)C2=O
In short: as §1

[7] = compound: C1CCN(C1)C(=O)NC2=CC=CC(=C2)NC3=NC=C(C(=N3)NCCC4=CN=CN4)Br
In short: as §1

[8] = compound: C1CN(CCC1(CC2=CC=C(C=C2)Cl)N)C3=NC=NC4=C3C=CN4
In short: as §1

IRAK-1-4 Inhibitor I = compound: C1COCCN1CCN2C3=CC=CC=C3N=C2NC(=O)C4=CC(=CC=C4)[N+](=O)[O-] [IRAK-1-4 Inhibitor I]
In short: as §1

ibrutinib = compound: C=CC(=O)N1CCC[C@@H](n2nc(-c3ccc(Oc4ccccc4)cc3)c3c(N)ncnc32)C1 [ibrutinib]
In short: as §1

[9] = compound: CC(=O)c1cnc2ccc(-c3cc(Cl)c(O)c(Cl)c3)nc2c1N[C@H]1CC[C@H](CN(C)C)CC1
In short: as §1

ralimetinib = compound: CC(C)(C)Cn1c(N)nc2ccc(-c3[nH]c(C(C)(C)C)nc3-c3ccc(F)cc3)nc21 [ralimetinib]
In short: as §1

[10] = compound: CC(C)(O)CC(=O)NCCn1ccc2ncnc(Nc3ccc(Oc4cccc(C(F)(F)F)c4)c(Cl)c3)c21
In short: as §1

[11] = compound: CC(C)C1=C2N=C(C=C(N2N=C1)NCC3=CC=CC=C3)NCCCCCCN
In short: as §1

[12] = compound: CC1=C(C(CC(=O)N1)C2=CC=C(C=C2)C(F)(F)F)C(=O)NC3=C(C=C4C(=C3)C=NN4)F
In short: as §1

[13] = compound: CC1=C(C2=C(C=C1)C(=O)C3=CC=CC=C3N2CCCN)C
In short: as §1

[14] = compound: CC1=C(C=C(C=C1)NC(=O)C2=CC(=CC=C2)C(C)(C)C#N)NC3=CC4=C(C=C3)N=CN(C4=O)C
In short: as §1

[15] = compound: CC1=C(C=C(C=C1)NC(=O)C2=CC(=CC=C2)N(C)C)NC(=O)C3=CC=C(C=C3)O
In short: as §1

[16] = compound: CC1=CC=C(C=C1)SC2=C3C=C(SC3=CN=C2)C(=O)N
In short: as §1

Measured: log2 fold change

PDIA5 (UniProt Q14554)
inactive: erlotinib -0.04 | [1] -0.047 | [2] 0.031 | [3] 0.003 | [4] 0.001 | [5] -0.014 | [6] 0.005 | [7] 0.013 | [8] 0.042 | IRAK-1-4 Inhibitor I -0.005 | ibrutinib 0.014 | [9] -0.045 | ralimetinib 0.005 | [10] -0.04 | [11] 0.003 | [12] 0.009 | [13] -0.021 | [14] -0.012 | [15] 0.001 | [16] -0.005

PDF (UniProt Q9HBH1)
inactive: erlotinib 0.033 | [1] 0.07 | [2] -0.072 | [3] 0.005 | [4] -0.066 | [5] 0.066 | [6] -0.013 | [7] 0.047 | [8] -0.063 | IRAK-1-4 Inhibitor I 0.055 | ibrutinib 0.054 | [9] 0.016 | ralimetinib -0.014 | [10] 0.066 | [11] 0.001 | [12] 0.01 | [13] 0.07 | [14] 0.048 | [15] -0.018 | [16] 0.059

PDCD6 (UniProt O75340)
inactive: erlotinib -0.043 | [1] -0.036 | [2] -0.017 | [3] 0.023 | [4] 0.01 | [5] 0.007 | [6] 0.016 | [7] -0.022 | [8] 0.003 | IRAK-1-4 Inhibitor I 0.006 | ibrutinib 0.024 | [9] 0.019 | ralimetinib -0.014 | [10] -0.036 | [11] 0.008 | [12] -0.002 | [13] 0.009 | [14] -0.047 | [15] 0.011 | [16] 0.002

PDCD2L (UniProt Q9BRP1)
inactive: erlotinib 0.078 | [1] -0.065 | [2] 0.001 | [3] 0.023 | [4] 0.022 | [5] 0.035 | [6] -0.058 | [7] -0.038 | [8] 0.005 | IRAK-1-4 Inhibitor I -0.005 | ibrutinib 0.005 | [9] -0.033 | ralimetinib 0.028 | [10] -0.031 | [11] -0.021 | [12] -0.026 | [13] -0.024 | [14] 0.036 | [15] 0.01 | [16] -0.01

PDE2A (UniProt O00408)
inactive: erlotinib -0.015 | [1] 0.082 | [2] 0.12 | [3] -0.337 | [4] -0.055 | [5] 0.249 | [6] -0.257 | [7] 0.001 | [8] -0.027 | IRAK-1-4 Inhibitor I 0.18 | ibrutinib -0.008 | [9] -0.148 | ralimetinib -0.202 | [10] -0.107 | [11] -0.045 | [12] -0.018 | [13] 0.025 | [14] -0.038 | [15] 0.01 | [16] -0.11

PAXX (UniProt Q9BUH6)
inactive: erlotinib -0.01 | [1] 0.05 | [2] 0.029 | [3] -0.001 | [4] 0.026 | [5] 0.034 | [6] 0.061 | [7] 0.004 | [8] -0.029 | IRAK-1-4 Inhibitor I 0.007 | ibrutinib 0.002 | [9] 0.031 | ralimetinib -0.036 | [10] 0.015 | [11] -0.004 | [12] -0.027 | [13] -0.036 | [14] 0.034 | [15] 0.048 | [16] -0.035

PDCL3 (UniProt Q9H2J4)
inactive: erlotinib 0.008 | [1] -0.042 | [2] 0.006 | [3] -0.024 | [4] -0.01 | [5] 0.015 | [6] -0.014 | [7] -0.027 | [8] 0.008 | IRAK-1-4 Inhibitor I 0.021 | ibrutinib -0.009 | [9] -0.008 | ralimetinib -0.009 | [10] -0.018 | [11] -0.017 | [12] -0.017 | [13] -0.027 | [14] -0.016 | [15] -0.002 | [16] -0.005

PCSK9 (UniProt Q8NBP7)
inactive: erlotinib 0.027 | [1] 0.167 | [2] -0.006 | [3] -0.104 | [4] -0.09 | [5] -0.007 | [6] 0.014 | [7] 0.058 | [8] 0 | IRAK-1-4 Inhibitor I 0.075 | ibrutinib -0.032 | [9] -0.028 | ralimetinib 0.043 | [10] -0.05 | [11] -0.044 | [12] -0.036 | [13] -0.039 | [14] 0.048 | [15] -0.062 | [16] 0.011

PARP14 (UniProt Q460N5)
inactive: erlotinib 0.06 | [1] -0.037 | [2] 0.012 | [3] -0.032 | [4] 0.081 | [5] 0.005 | [6] -0.166 | [7] -0.025 | [8] 0.062 | IRAK-1-4 Inhibitor I -0.095 | ibrutinib 0.029 | [9] -0.051 | ralimetinib -0.03 | [10] 0.015 | [11] 0.074 | [12] 0.049 | [13] 0.011 | [14] -0.007 | [15] 0.002 | [16] -0.135

PCK2 (UniProt Q16822)
inactive: erlotinib 0.004 | [1] -0.06 | [2] 0.036 | [3] 0.01 | [4] -0.008 | [5] -0.016 | [6] -0.018 | [7] 0.004 | [8] 0.04 | IRAK-1-4 Inhibitor I 0.013 | ibrutinib -0.004 | [9] 0.009 | ralimetinib -0.01 | [10] -0.019 | [11] -0.009 | [12] -0.026 | [13] -0.019 | [14] 0.024 | [15] 0.064 | [16] -0.003

PARVB (UniProt Q9HBI1)
inactive: erlotinib 0.043 | [1] -0.057 | [2] -0.009 | [3] 0.013 | [4] -0.012 | [5] 0.005 | [6] -0.018 | [7] 0.018 | [8] 0.031 | IRAK-1-4 Inhibitor I 0.017 | ibrutinib 0.01 | [9] 0 | ralimetinib -0.002 | [10] -0.008 | [11] -0.022 | [12] 0.039 | [13] -0.015 | [14] -0.026 | [15] 0.016 | [16] -0.026

PDLIM4 (UniProt P50479)
inactive: erlotinib 0.01 | [1] -0.054 | [2] 0.007 | [3] 0.017 | [4] 0 | [5] 0.009 | [6] 0.012 | [7] -0.006 | [8] 0.01 | IRAK-1-4 Inhibitor I 0.002 | ibrutinib 0.014 | [9] 0.003 | ralimetinib -0.009 | [10] -0.027 | [11] -0.006 | [12] -0.025 | [13] -0.003 | [14] 0.008 | [15] 0.001 | [16] -0.039

PAXBP1 (UniProt Q9Y5B6)
inactive: erlotinib 0.019 | [1] -0.035 | [2] 0.025 | [3] -0.01 | [4] 0.018 | [5] 0.026 | [6] -0.04 | [7] -0.022 | [8] 0.029 | IRAK-1-4 Inhibitor I 0.013 | ibrutinib -0.004 | [9] 0.019 | ralimetinib 0.027 | [10] -0.015 | [11] 0.006 | [12] -0.024 | [13] 0.007 | [14] -0.007 | [15] 0.077 | [16] 0.032

PCYOX1 (UniProt Q9UHG3)
inactive: erlotinib -0.018 | [1] -0.021 | [2] 0.031 | [3] 0.03 | [4] 0.022 | [5] -0.032 | [6] 0.003 | [7] 0.039 | [8] 0.012 | IRAK-1-4 Inhibitor I -0.03 | ibrutinib 0.029 | [9] 0.001 | ralimetinib 0.013 | [10] 0.02 | [11] -0.009 | [12] 0.053 | [13] 0.026 | [14] 0.01 | [15] 0 | [16] -0.004

PCYT1B (UniProt Q9Y5K3)
inactive: erlotinib -0.016 | [1] 0.015 | [2] -0.006 | [3] 0.046 | [4] -0.03 | [5] 0.002 | [6] 0.044 | [7] -0.041 | [8] -0.032 | IRAK-1-4 Inhibitor I -0.023 | ibrutinib -0.051 | [9] -0.007 | ralimetinib 0.003 | [10] 0.013 | [11] -0.042 | [12] -0.039 | [13] -0.03 | [14] 0.016 | [15] -0.002 | [16] 0.026

PGAM1 (UniProt P18669)
inactive: erlotinib -0.014 | [1] 0.017 | [2] 0.015 | [3] 0.002 | [4] -0.003 | [5] 0.03 | [6] 0.001 | [7] 0.021 | [8] 0.018 | IRAK-1-4 Inhibitor I 0.015 | ibrutinib 0.021 | [9] -0.003 | ralimetinib 0.003 | [10] 0.003 | [11] -0.012 | [12] 0.029 | [13] -0.028 | [14] 0.029 | [15] -0.03 | [16] -0.034

4 consecutive entries out of the list so far, for reference:
PARVB (UniProt Q9HBI1)
inactive: erlotinib 0.043 | [1] -0.057 | [2] -0.009 | [3] 0.013 | [4] -0.012 | [5] 0.005 | [6] -0.018 | [7] 0.018 | [8] 0.031 | IRAK-1-4 Inhibitor I 0.017 | ibrutinib 0.01 | [9] 0 | ralimetinib -0.002 | [10] -0.008 | [11] -0.022 | [12] 0.039 | [13] -0.015 | [14] -0.026 | [15] 0.016 | [16] -0.026

PDLIM4 (UniProt P50479)
inactive: erlotinib 0.01 | [1] -0.054 | [2] 0.007 | [3] 0.017 | [4] 0 | [5] 0.009 | [6] 0.012 | [7] -0.006 | [8] 0.01 | IRAK-1-4 Inhibitor I 0.002 | ibrutinib 0.014 | [9] 0.003 | ralimetinib -0.009 | [10] -0.027 | [11] -0.006 | [12] -0.025 | [13] -0.003 | [14] 0.008 | [15] 0.001 | [16] -0.039

PAXBP1 (UniProt Q9Y5B6)
inactive: erlotinib 0.019 | [1] -0.035 | [2] 0.025 | [3] -0.01 | [4] 0.018 | [5] 0.026 | [6] -0.04 | [7] -0.022 | [8] 0.029 | IRAK-1-4 Inhibitor I 0.013 | ibrutinib -0.004 | [9] 0.019 | ralimetinib 0.027 | [10] -0.015 | [11] 0.006 | [12] -0.024 | [13] 0.007 | [14] -0.007 | [15] 0.077 | [16] 0.032

PCYOX1 (UniProt Q9UHG3)
inactive: erlotinib -0.018 | [1] -0.021 | [2] 0.031 | [3] 0.03 | [4] 0.022 | [5] -0.032 | [6] 0.003 | [7] 0.039 | [8] 0.012 | IRAK-1-4 Inhibitor I -0.03 | ibrutinib 0.029 | [9] 0.001 | ralimetinib 0.013 | [10] 0.02 | [11] -0.009 | [12] 0.053 | [13] 0.026 | [14] 0.01 | [15] 0 | [16] -0.004
